{
  "source": "patent EP0320984A2",
  "about": "“1,4-Dihydropyridine derivatives” (FUJIREBIO INC., priority 1987, dated 1989)",
  "experiment": "Hypotensive activity in conscious spontaneously hypertensive rats, arterial blood pressure via catheterized abdominal aorta",
  "assay_type": "in vivo, Male spontaneously hypertensive rats (SHR)",
  "conditions": "30μg, injected into the caudal vein, conscious SHR (reference compounds)",
  "note": "The name of at least one read-out is uncertain.",
  "data": [
    {"smiles": "COC(=O)C1=C(C)NC(C)=C(C(=O)OC)C1c1ccccc1[N+](=O)[O-]", "note": "[NIFEDIPINE, 1,4-dihydro-2,6-dimethyl-4-(2-nitrophenyl)pyridine-3,5-dicarboxylic acid dimethyl ester, reference compound]", "values": [
      {"measurement": "Hypotensive effect - Max", "value": "55 (30μg) mm Hg"}
    ]}
  ]
}
